These results are taken from the supplement of paper PMC8551327.

Some of the results follow. No stated cut-off is given here; in the data, active = 1.25 or more and inactive = the rest. Many values rest on one well or one pass, so single values are uncertain.

For this experiment, the system named is Kcc2-LUC knock-in mouse primary cortical neurons (Kcc2 promoter reporter). Kind of experiment: Kcc2 promoter-driven luciferase activity relative to vehicle control (fold of vehicle (ratio)); higher = stronger Kcc2 promoter activation (Kcc2 expression enhancer). Particulars: 100 nM; 48 h.
Regarding `C=C1C[C@]23C[C@@]1(O)CC[C@H]2[C@@]12C=C[C@H](O)[C@@](C)(C(=O)O1)[C@H]2[C@@H]3C(=O)O` [Gibberellic Acid], the “Kcc2 promoter-driven luciferase activity” value is inactive: 1.02. Next, `CCNCCCCNCCCCNCCCCNCCCCNCC`: inactive: 1.06.

In the case of `O=C(CC1(O)C(=O)Nc2c(Cl)ccc(Cl)c21)c1ccc(Cl)cc1` (configuration not stated), the “Kcc2 promoter-driven luciferase activity” value was inactive: 0.93. Turning to `CC1=CC(=O)c2cccc(NC3=NCCO3)c21` [4-(4,5-Dihydrooxazol-2-ylamino)-3-methyl-inden-1-one], the “Kcc2 promoter-driven luciferase activity” value was active: 5.62. `COC(=O)C1=CC(=O)C(C(=O)Nc2ccc(OC)cc2)C(c2ccccc2)O1` (configuration not stated): the “Kcc2 promoter-driven luciferase activity” value was inactive: 0.98. Next, `Cc1ccc2[c](c1)[Sn]([c]1ccccc1)([c]1ccccc1)[c]1cc(C)ccc1N2C` [2,5,8-Trimethyl-10,10-diphenylbenzo[b][1,4]benzazastannine]: inactive: 0.73; `c1ccc2c(c1)nnn1c3cnccc3nc21` [Pyrido(4',3':4,5)imidazo(1,2-c)(1,2,3)benzotriazine]: inactive: 1.01.

Turning to `C=C1C(=O)OCC2C(C(=O)O)=CC3C(C)C(C)=CC123` (configuration not stated), the “Kcc2 promoter-driven luciferase activity” value was inactive: 1.01. For the compound `O=S(=O)(c1cccc(N=C=S)c1)c1cccc(N=C=S)c1` [Bis(3-Isothiocyanatophenyl)sulphone], the “Kcc2 promoter-driven luciferase activity” value was inactive: 1.14. Next, `Cc1ccc([S+](c2ccc(C)cc2)c2ccc(C)cc2)cc1` [Tris(4-methylphenyl)sulfonium Chloride]: inactive: 1.11.

As to `CN(C)CC1CCC/C(=C\c2ccc(OC(=O)/C=C/c3ccccc3)cc2)C1=O` (configuration not stated), the “Kcc2 promoter-driven luciferase activity” value was inactive: 0.9. The value for `O=S1(=O)OCCOS(=O)(=O)C1Cc1ccccc1` [3-Benzyl-1,5,2,4-dioxadithiepane 2,2,4,4-tetraoxide] was inactive: 0.77.
